# Laboratory results: paper PMC7684319
# Amino acid sequences for entries named in this document (tags omitted).
# UniProt O15042: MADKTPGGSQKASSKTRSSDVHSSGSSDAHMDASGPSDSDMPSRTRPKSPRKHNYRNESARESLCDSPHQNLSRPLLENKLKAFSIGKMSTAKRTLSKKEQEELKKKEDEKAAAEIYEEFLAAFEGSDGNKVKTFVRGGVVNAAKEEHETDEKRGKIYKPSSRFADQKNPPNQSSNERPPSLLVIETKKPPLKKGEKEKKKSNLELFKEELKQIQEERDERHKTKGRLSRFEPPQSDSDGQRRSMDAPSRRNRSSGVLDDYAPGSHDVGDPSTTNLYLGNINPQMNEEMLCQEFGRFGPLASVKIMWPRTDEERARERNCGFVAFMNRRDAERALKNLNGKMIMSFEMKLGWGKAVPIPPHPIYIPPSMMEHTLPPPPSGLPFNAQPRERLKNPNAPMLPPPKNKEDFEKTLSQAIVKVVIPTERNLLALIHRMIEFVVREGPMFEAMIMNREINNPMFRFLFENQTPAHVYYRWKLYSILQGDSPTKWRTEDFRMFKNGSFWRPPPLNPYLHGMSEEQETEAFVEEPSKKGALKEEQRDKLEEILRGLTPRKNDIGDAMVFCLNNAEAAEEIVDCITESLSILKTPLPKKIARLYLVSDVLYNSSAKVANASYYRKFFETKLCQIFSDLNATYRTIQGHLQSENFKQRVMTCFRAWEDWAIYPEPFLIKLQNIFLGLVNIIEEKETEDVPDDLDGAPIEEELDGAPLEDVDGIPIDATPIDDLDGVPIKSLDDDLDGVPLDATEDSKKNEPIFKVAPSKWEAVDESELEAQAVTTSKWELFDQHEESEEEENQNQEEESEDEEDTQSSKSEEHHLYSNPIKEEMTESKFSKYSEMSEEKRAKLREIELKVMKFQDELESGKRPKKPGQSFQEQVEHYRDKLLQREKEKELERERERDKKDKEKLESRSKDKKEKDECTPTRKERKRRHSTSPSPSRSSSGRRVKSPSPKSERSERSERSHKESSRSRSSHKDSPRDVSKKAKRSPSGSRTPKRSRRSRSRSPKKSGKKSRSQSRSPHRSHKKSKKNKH
# UniProt Q6NV83: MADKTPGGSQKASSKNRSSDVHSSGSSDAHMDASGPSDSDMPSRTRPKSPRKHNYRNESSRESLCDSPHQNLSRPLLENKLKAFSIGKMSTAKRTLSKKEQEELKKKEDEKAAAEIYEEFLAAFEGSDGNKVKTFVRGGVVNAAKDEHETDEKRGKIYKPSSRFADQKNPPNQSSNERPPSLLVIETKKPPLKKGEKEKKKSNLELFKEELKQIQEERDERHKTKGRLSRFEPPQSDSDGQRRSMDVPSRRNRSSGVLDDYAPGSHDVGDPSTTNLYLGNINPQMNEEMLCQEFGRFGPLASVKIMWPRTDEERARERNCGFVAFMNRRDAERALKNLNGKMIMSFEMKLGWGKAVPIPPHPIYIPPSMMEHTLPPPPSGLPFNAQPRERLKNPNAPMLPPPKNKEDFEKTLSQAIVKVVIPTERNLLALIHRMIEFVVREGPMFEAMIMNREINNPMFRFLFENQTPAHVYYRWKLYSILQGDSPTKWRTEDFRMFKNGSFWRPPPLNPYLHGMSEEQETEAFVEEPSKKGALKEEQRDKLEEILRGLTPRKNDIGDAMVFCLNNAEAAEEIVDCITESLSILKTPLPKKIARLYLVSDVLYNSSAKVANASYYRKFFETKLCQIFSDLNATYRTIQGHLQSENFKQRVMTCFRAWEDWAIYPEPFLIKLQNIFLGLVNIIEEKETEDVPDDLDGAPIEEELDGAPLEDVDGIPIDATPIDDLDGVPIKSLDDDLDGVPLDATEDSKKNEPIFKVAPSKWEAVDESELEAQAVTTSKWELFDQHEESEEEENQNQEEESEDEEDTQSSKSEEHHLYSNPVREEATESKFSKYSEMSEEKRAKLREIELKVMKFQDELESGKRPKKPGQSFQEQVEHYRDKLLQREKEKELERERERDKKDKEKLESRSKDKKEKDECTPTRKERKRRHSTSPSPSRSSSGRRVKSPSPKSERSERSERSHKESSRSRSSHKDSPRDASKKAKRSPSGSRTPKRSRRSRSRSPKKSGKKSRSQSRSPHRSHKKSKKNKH
# UniProt O35286: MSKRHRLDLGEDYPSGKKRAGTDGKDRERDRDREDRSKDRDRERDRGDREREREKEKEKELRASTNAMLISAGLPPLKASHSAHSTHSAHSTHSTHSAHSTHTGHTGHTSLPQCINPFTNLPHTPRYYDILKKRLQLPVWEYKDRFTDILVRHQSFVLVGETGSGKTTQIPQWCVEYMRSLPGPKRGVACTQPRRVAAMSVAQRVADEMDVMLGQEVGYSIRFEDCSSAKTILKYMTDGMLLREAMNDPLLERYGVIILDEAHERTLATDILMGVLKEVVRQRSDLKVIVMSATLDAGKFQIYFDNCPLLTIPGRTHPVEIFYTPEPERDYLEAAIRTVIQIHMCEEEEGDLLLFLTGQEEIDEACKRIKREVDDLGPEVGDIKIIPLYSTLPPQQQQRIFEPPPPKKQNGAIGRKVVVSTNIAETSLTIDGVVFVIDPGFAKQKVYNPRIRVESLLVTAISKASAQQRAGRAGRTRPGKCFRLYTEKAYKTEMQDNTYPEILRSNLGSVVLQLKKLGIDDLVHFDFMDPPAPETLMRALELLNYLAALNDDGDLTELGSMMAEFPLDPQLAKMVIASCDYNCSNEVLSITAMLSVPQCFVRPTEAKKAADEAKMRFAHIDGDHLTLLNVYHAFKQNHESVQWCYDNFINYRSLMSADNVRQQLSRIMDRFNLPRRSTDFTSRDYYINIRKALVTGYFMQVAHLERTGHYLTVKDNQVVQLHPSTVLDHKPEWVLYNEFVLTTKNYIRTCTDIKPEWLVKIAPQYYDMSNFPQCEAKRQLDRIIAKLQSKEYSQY
# These are yes or no findings as the source states them, for the method shown. Binding seen in cells or lysates may run through a third protein. Some binding calls cover weakened binding; strength is not graded here. For some of these results: Where a sequence is shown, tags or fusion partners need not be part of it.
# T1: serine threonine kinase receptor-associated protein (STRAP) (mouse (endogenous in mouse ESCs)) (UniProt Q9Z1Z2)
# T1 sequence: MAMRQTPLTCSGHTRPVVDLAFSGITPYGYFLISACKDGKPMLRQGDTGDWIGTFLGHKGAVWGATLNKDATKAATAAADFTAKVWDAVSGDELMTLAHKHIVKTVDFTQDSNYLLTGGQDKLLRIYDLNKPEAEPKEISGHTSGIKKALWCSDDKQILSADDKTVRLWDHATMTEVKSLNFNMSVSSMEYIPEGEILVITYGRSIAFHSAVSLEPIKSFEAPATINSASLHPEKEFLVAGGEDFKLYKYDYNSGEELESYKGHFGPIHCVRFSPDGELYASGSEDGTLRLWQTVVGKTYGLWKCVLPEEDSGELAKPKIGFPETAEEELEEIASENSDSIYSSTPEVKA
# T2: CHERP (mouse (endogenous in mouse EBs)) (UniProt Q8CGZ0)
# T2 sequence: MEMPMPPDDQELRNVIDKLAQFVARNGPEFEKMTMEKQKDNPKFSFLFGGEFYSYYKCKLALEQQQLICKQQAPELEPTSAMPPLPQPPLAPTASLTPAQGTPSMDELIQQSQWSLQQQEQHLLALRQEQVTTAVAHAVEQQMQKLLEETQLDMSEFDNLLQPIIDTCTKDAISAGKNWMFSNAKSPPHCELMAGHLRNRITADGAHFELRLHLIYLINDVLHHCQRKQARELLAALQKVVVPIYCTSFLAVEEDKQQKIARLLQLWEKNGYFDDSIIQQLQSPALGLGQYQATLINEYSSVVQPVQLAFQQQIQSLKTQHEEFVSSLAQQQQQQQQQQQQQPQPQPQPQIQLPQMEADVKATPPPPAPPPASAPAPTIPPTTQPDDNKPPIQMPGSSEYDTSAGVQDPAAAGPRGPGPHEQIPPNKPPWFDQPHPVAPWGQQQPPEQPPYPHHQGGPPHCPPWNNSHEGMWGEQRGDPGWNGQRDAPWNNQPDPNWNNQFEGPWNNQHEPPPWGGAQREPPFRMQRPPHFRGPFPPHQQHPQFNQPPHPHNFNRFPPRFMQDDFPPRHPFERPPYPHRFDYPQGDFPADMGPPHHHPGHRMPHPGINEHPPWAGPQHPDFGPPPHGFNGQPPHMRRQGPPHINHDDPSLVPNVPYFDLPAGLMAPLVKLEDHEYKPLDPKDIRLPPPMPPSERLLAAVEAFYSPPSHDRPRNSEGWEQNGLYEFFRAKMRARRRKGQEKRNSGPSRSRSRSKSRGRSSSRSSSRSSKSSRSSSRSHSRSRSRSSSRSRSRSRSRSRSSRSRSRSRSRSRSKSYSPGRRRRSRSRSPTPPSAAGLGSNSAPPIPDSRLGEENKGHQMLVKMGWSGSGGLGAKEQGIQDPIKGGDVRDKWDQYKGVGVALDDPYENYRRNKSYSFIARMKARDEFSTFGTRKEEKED
# T3: SF3B1 (mouse (endogenous in mouse ESCs and EBs)) (UniProt Q99NB9)
# T3 sequence: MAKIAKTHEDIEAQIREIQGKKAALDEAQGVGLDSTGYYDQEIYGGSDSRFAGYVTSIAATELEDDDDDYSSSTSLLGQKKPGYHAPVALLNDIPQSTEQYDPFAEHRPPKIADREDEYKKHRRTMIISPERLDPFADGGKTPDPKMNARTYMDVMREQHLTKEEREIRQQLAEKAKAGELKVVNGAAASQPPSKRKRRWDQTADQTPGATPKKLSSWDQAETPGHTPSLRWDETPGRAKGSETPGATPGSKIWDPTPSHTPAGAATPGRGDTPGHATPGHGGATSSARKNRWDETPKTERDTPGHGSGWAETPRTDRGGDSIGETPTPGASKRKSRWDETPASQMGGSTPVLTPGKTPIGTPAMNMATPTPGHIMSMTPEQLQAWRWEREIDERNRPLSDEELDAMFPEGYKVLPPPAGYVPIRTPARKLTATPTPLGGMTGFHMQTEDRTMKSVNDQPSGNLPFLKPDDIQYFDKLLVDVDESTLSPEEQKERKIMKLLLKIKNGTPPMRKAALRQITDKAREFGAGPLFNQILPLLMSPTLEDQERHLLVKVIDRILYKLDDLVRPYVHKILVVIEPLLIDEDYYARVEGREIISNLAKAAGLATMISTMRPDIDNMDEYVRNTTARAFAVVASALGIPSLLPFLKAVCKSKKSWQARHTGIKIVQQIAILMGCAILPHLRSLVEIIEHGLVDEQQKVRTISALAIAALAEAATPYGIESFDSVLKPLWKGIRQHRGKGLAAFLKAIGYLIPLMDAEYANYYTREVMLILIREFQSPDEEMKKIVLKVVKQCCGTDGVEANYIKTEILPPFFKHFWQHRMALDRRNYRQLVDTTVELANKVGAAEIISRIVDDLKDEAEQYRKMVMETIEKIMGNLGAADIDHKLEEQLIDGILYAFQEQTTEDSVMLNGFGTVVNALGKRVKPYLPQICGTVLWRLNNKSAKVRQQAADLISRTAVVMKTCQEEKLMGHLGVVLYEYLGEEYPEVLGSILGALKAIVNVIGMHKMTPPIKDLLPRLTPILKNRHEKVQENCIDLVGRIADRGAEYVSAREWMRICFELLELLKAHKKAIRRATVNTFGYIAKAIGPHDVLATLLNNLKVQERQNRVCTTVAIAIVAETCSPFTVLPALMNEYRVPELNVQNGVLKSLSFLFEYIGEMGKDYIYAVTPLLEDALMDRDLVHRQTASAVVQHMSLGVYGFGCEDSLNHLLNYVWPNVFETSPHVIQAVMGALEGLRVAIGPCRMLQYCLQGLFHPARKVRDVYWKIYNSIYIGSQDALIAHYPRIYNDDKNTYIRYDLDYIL
# B1: U2A’ (protein, UniProt P57784 1-255)
# chain: MVKLTAELIEQAAQYTNAVRDRELDLRGYKIPVIENLGATLDQFDAIDFSDNEIRKLDGFPLLRRLKTLLVNNNRICRIGEGLDQALPCLTELILTNNSLVELGDLDPLASLKSLTYLSILRNPVTNKKHYRLYVIYKVPQVRVLDFQKVKLKERQEAEKMFKGKRGAQLAKDIARRSKTFNPGAGLPTDKKKGGPSAGDVEAIKNAIANASTLAEVERLKGLLQSGQIPGRERRSGPSDEGEEEIEDDTVTNGS
# B2: TFIIIC110 (protein, UniProt Q8BL74 1-907)
# chain: MDTCGVGYVALGEADPVGSMIVVDSPGQEELSQLDVKASETSGVEASIEMSLPPPLPGFEDSSDRRLPPDQESLTRLEQQDLSSEMSKVSNTRASKPSGRRGGRTARGAKRPQQRKPPSTPLVPGLLDQSNPLSTPMPKKRSQKSKGDLLLLKLSKGLDQPESPHPKRPPEDFETPSGERPRRRAAQVALLYLQELAEELSTALPAPPLSGPKSPKVSSPTKPKKTRQASSQGEEDGSARDEDFVLQVEGEDEEESEAPSENSSDPEPVAPRSTPRGPAAGKQKPHCRGMAPNGLPNYIMAPVWKCLHLTKDLREQHHSFWEFAEWIPVAWKWQLLSELEAAPYLPQEEKSPLFSVQREGIPEDGTIYRINRFSSITAHPERWDVSFFTGGPLWALDWCPVPEGSAASQYVALFSSPDMNETHPLSQLHSGPGLLQLWGLGTLQQESCPGNRAHFVYGIACDSGCIWDLKFCPSGAWEHPETLRKAPLLPRLGLLALACSDGKVLLFSLPHPEALLAQQPPDAMKPAIYKVQCLATLQVGSVQASDPSECGQCLSLAWMPTRPHHHLAAGYYNGMVVFWNLPTNSPLQRIRLSDGSLKLYPFQCFLAHDQAVRTIQWCKANSHFLVSAGSDRKIKFWDLRRPYEPINCIKRFLSTELSWLLPYNGVTVAQDNCYASYGLCGIHYIDAGYLGFKAYFTAPRKGTVWSLSGSDWLGTVAAGDISGELIAAILPDMASNPINVKKPAERRFPIYKADLIPYQDSPEDQDYSSTSSETPNPPKARTYTETINHHYLLFQDTDLSSFHNLLRREPMLRMQEGEGHSQLCLDRLQLEAIHKVRFSPNLDSYGWLVSGGQSGLVRIHFVRGLTSPLAHRVQLESRANFNAMFQPSFPTEGPGFSPSSHCLLPNP
# B3: STRAP-Flag (protein, UniProt Q9Z1Z2 1-350)
# chain: T1 sequence
# What was measured:
# [1] = molecular target: T1, serine threonine kinase receptor-associated protein (STRAP) (mouse (endogenous in mouse ESCs)); assay: co-IP; anti-STRAP antibody cross-linked to beads, rotated overnight with mouse ESC nuclear extracts, with or without RNase A (100 μg/mL, 15 min) or DNase I (10 U, 30 min, 37 °C); buffer 50 mM Tris-HCl pH 7.5, 150 mM NaCl, 10 mM EDTA; rabbit IgG as negative control; Western blot
# [2] = molecular target: T2, CHERP (mouse (endogenous in mouse EBs)); assay: co-IP; anti-CHERP antibody; nuclear extracts of WT and Strap KO EBs; Western blot
# [3] = molecular target: T3, SF3B1 (mouse (endogenous in mouse ESCs and EBs)); assay: co-IP; anti-SF3B1 antibody cross-linked to beads; nuclear extracts of WT and Strap KO mouse ESCs and EBs; Western blot
# SR140-HA = SR140-HA (UniProt O15042); assay: co-IP; HEK293T cells transfected with SR140-HA and Flag-tagged STRAP constructs; lysates immunoprecipitated with anti-HA antibody, blotted with anti-Flag or anti-HA
Molecule,binding [1],binding [2],binding [3],binding (SR140-HA)
SR140 (from UniProt Q6NV83 1-1029),binds,binds,–,–
DDX15 (from UniProt O35286 1-795),no binding,–,–,–
B1,binds,–,binds,–
B2,binds,–,–,–
B3,–,–,–,binds
